Some of the results follow.
B1: il2ra_site1_3nfp_sap_22_mot_HHH_b2_05674_000000170_0001_23_39_H_._HHH_b2_06768_0001_0000200010_0000001_0_0001_af2pred_0001_af2pred (protein)
chain: SSSSSDEEYEERIRELLERAKHVDPREAAKLFKEALKIAAELGDPELKRLIAEVLKKLAESSSSS
B2: il2ra_site1_3nfp_normal_mot_1cd86ef9f1587ae5d14d35bbbd8e7f1d_0001_1_000000087_0001_34_49_H_._HHH_b1_05184_af2_0001_0000200007_0000001_0_af2pred_0001_1_af2pred_s … (protein)
chain: SSSSDEEAEELLEEIRKQLEELLKRGNPREASKLAEEAYEELVRLGNPELAEELMRFAHKLSSSS
B3: il2ra_site2_2erj_sap_15_mot_44d7d87cef3b3f1636c8b2572508b1bf_0001_1_af2_000000043_0001_37_65_H_._HHH_b1_00092_0001_0000200007_0000001_0_0001 (protein)
chain: SSSSDEVAKEVNELVRRAVEAAQNGNPEEAEELLEEALRVAEEGNNPELAEAVELMIKFLSSSSS
B4: il2ra_site1_2b5i_sap_11_mot_HHH_b1_02217_af2_000000060_0001_42_56_H_._HHH_b1_08219_0001_0000700019_0000001_0_0001_af2pred_0001_af2pred (protein)
chain: SSSSDEAEEVFELLEEANKLFKNGNPEEAEKILERAEELAKEINSPNLLKLIEAALKLIRSSSSS
B5: il2ra_site1_2b5i_normal_mot_HHH_b2_04910_000000118_0001_1_19_H_._HHH_b1_03408_0001_0000500036_0000001_0_af2pred_dldesign_0_af2pred (protein)
chain: SSSSSPEVKEALELFKKADELFKAGKEEEAKELLEKALKLLEEAKSSKKKFVEAALKQLESSSSS
B6: il2ra_site1_3nfp_normal_mot_HHH_b1_01335_af2_000000105_0001_39_53_H_._HHH_b2_00121_0001_0000200007_0000001_0_af2pred_0001_af2pred (protein)
chain: SSSSSEEEVREVLEEAERAAEEGDIQRVDELLREALKLANENKDEEARELVRKFAEELAEESSSS
B7: il2ra_site2_2erj_normal_mot_HHH_b2_00494_000000216_0001_41_54_H_._HHH_b2_06608_0001_0000400032_0000001_0 (protein)
chain: SSSSDEELKRLYELADRALELLYRGNPEEAREVLEEARELAEKLGSDNAREAIEFLEEQINSSSS
B8: il2ra_site1_2b5i_sap_10_mot_HHH_b2_03947_af2_000000011_0001_39_52_H_._HHH_b1_03827_0002_0000300009_0000001_0_0001 (protein)
chain: SSSSDIEEQIDELFREASELWRKGNPEEARKLLEEALELAEEANDPEAARDIEQMLRMAGSSSSS
B9: il2ra_site1_2b5i_sap_8_mot_a1647c6a1bc1795bd61f8ac90a0f45d0_0001_1_000000140_0001_54_65_H_._490c46be001311c379c03e06fdb6e4f5_0001_1_0001_0000100006_0000001_0_00 … (protein)
chain: SSSSSSDEEEEIAELFSEASRIRDPEEAREVLEEAKRLAEELNDEKIKKQIEALQRWRRSSSSSS
B10: il2ra_site1_2b5i_normal_mot_f5ff40796168375b462bec8614a1db4a_0001_1_000000138_0001_53_65_H_._HHH_b2_03376_0001_0000200014_0000001_0_af2pred_dldesign_0_af2pred (protein)
chain: SSSSSSPEELCEELKAEVEALLAAGDTERARKLALLLRRIAKKLKNEEILKECDALLAALSSSSS
B11: il2ra_site1_1z92_normal_mot_07d2d8a42fb0c6931fb03626c2a0eeb8_0001_000000112_0001_36_50_H_._f0ee23d083d0677da3dfcc8a6cd225b6_0001_af2_0001_0000200007_0000001_0 (protein)
chain: SEEEEEIEEEIKKVPDPVIREVLEILLKLARQGDPTARFALEQLLKKLELGNPRSARNIAQKLLR
B12: il2ra_site1_2b5i_sap_2_mot_05650c620ad560ee7d778618fc3b96ad_0001_000000157_0001_16_30_H_._HHH_b1_04080_0001_0000100001_0000001_0_0001_af2pred_dldesign_0_af2pred (protein)
chain: SSSSDAEELRALFLKANELHQAGKDEEAIEVLEKALELARARGATGWVRFIELALKQVLESSSSS
B13: il2ra_site1_2b5i_normal_mot_HHH_b1_02271_000000068_0001_1_16_H_._HHH_b2_02493_af2_0001_0000400015_0000001_0_af2pred_dldesign_0_af2pred (protein)
chain: SSSSSSEKREEARRLIEEAKKEKNLREALKLLEEAVKLAEELNDEELAEEAERLARELLSSSSSS
B14: il2ra_site1_2b5i_normal_mot_HHH_b2_04910_000000118_0001_1_19_H_._HHH_b1_05981_0001_0000700008_0000001_0_af2pred_dldesign_0_af2pred (protein)
chain: SSSSMEEVRKLFLEADKLFQAGKNDEALKVLEEALKLAKEAGSKLAVRLCENAIKQIKSLSSSSS
B15: il2ra_site2_3nfp_normal_mot_HHH_b2_00429_000000100_0001_21_37_H_._HHH_b2_04487_0001_0000100009_0000001_0 (protein)
chain: SSSSSDEEIEELLEQLERLLEEGDEEKFQRAVAKAAHVIYRLNDHEAFARLADLVFELLGSSSSS
B16: il2ra_site1_3nfp_sap_16_mot_HHH_b1_01159_af2_000000075_0001_1_20_H_._HHH_b2_04724_af2_0001_0000100001_0000001_0_0001_af2pred_0001_af2pred_1 (protein)
chain: SSSSDSVREFVRRFIEELLKRGNKERAEKTLERFEKDAERARDEEEKELLEELEELLERLSSSSS
B17: il2ra_site1_1z92_sap_22_mot_00a0fa73c9dbd8f1f8571bd9de0225d9_0001_af2_000000011_0001_1_12_H_._HHH_b1_04875_0001_0000100004_0000001_1_0001_af2pred_0001_af2pred_1 (protein)
chain: SSSSTKTEEALELAERQLELLVRLGDRERLKNNLKMAKIAARLLNDPEVEREIEELEEEGSSSSS
B18: il2ra_site1_2b5i_sap_16_mot_HHH_b1_05017_af2_000000115_0001_1_18_H_._HHH_b2_00737_af2_0001_0000300018_0000001_0_0001_af2pred_0001_af2pred (protein)
chain: SSSSTEETEELYELFEEANELDRNGNPEEARKVLEEALELAEEAGSPFARSIRIALEQFKSSSSS
B19: il2ra_site1_2b5i_sap_9_mot_HHH_b1_06258_af2_000000112_0001_42_56_H_._HHH_b1_04022_af2_0001_0000200017_0000001_0_0001_af2pred_dldesign_0_af2pred (protein)
chain: SSSSDPVAEALRLFLKADELFKAGKEEEALEALKEALKLAEKLGSKLLIRTIKSAIKNVESSSSS
B20: il2ra_site2_3nfp_sap_20_mot_HHH_b1_03818_000000217_0001_1_20_H_._HHH_b1_03372_af2_0001_0000600033_0000001_0_0001 (protein)
chain: SSSSDDREAAVRSALRLAEQLYEEGDPELAENALEWARAVALLWDNPELEKEVQKVEEELKSSSS
B21: il2ra_site2_3nfp_normal_mot_HHH_b2_00429_000000100_0001_21_37_H_._fc954f5bc8b30fbfb24795ed7ddcaf20_0001_af2_0001_0000100001_0000001_0 (protein)
chain: PEELVEEIIELIERGDPRARELASRLALLAYENNDHELFAVAADLLAALLEGDPHYLEEAERSLN
B22: il2ra_site1_3nfp_normal_mot_46d73865503fbedcaf0f3a45445d594c_0001_af2_000000151_0001_1_12_H_._HEEHE_1653_0001_0000300017_0000001_0 (protein)
chain: DEEVDSRAIRKLLERAAKVPSVEVEVENNKVTVTVEGNDEAARLAEEAARQAAKSLKVSVEVHEE
B23: il2ra_site1_1z92_normal_mot_ae822554cddc87a57d04fcdb10ee4bf1_0001_1_000000099_0001_1_12_H_._HHH_b2_00624_af2_0001_0000100002_0000001_0_af2pred_0001_af2pred (protein)
chain: SSSSSDDSRRFSELLRRALKALSEGNPEEAKELLEEAEKIAEKNGDEKAREFIERLLERAGSSSS
B24: il2ra_site2_2erj_sap_11_mot_HHH_b2_00525_af2_000000030_0001_1_19_H_._HHH_b1_08252_0001_0000100001_0000001_0_0001 (protein)
chain: SSSSDERLHELFELASRLMHLASNGDEEEFEKLARELERLAEELKSRNVEEIVKNLRRQLSSSSS

Biological target: il2ra, P01589
Test: yeast display titration

Apparent Kd, inactive:
B1 no binding seen
B2 no binding seen
B3 no binding seen
B4 no binding seen
B5 no binding seen
B6 no binding seen
B7 no binding seen
B8 no binding seen
B9 no binding seen
B10 no binding seen
B11 no binding seen
B12 no binding seen
B13 no binding seen
B14 no binding seen
B15 no binding seen
B16 no binding seen
B17 no binding seen
B18 no binding seen
B19 no binding seen
B20 no binding seen
B21 no binding seen
B22 no binding seen
B23 no binding seen
B24 no binding seen

Two records picked at random from the list so far:
Apparent Kd, inactive:
B24 no binding seen
B6 no binding seen

Source: paper PMC10163288
